Data: publication PMC12040169 (PLOS Biology, 2025)
This is one part of the list.

System: T1, CTL2-GFP (C. trachomatis L2/434/Bu, GFP-expressing)
T1 construct: L2/434/Bu, GFP-expressing
Design: species or system HeLa; Intracellular C. trachomatis growth in HeLa cells, bulk GFP fluorescence relative to DMSO
Settings: bulk GFP, single well; 28.5 h, 10 µM; inhibitor

Compound | % of control remaining [%]
CCC(=O)N1CCCCC1c1nn(C)cc1-c1onc(C)c1C (stereo not shown) [CBK283411] | 138.686
CC(C)(C)C(=O)Nc1ccc(F)c(C(=O)N2CCc3[nH]ncc3C2)c1 [CBK305303] | 140.889
Cc1c(CNC2(c3ccccc3F)CCCC2)c(=O)n(C)c(=O)n1C [CBK282986] | 147.192
Cc1c(C(=O)N(C)Cc2nc(C(F)(F)F)cs2)nnn1C1CCNCC1 [CBK304315C] | 118.064
CCNC(=S)N[C@@H]1CC[C@@]2(c3ccc([N+](=O)[O-])cc3)CCN(CCc3ccccc3)[C@H]2C1 [CBK004677] | 155.994
Cc1ccc(-c2ccccc2)n1-c1ccc(O)c(C(=O)O)c1 [CBK116375] | 100
COc1ccccc1OCCCN1C(=O)C2(CC(=O)N(C)C2=O)c2cc(F)ccc21 (stereo not shown) [CBK075430] | 135.913
Nc1nonc1-c1nc2ccccc2n1CC(=O)NCc1ccccc1 [CBK264711] | 100
NC(=O)C1(N2CCCCC2)CCN(C(=O)CCCC(=O)O)CC1 [CBK286575] | 106.637
COc1ccc(-c2nc3ccccn3c2CN2CCC(C(=O)O)CC2)cc1 [CBK287052] | 131.335
O=[N+]([O-])c1ccc(Cl)cc1N/N=C1\CN2CCC1CC2 [CBK217272] | 100
O=C(CSc1ncn(-c2ccccc2)n1)Nc1ccc2[nH]c(=O)[nH]c2c1 [CBK268212] | 111.073
Cn1c(=O)n(CC(=O)Nc2ccc(F)cc2)c2cccnc21 [CBK283919] | 130.353
O=C(O)c1ccc(Cl)c(S(=O)(=O)N2CCCC2C(=O)O)c1 (stereo not shown) [CBK265733] | 143.712
CN1CCC(N2CCN(C(=O)NCC3COc4ccccc4O3)CC2)CC1 (stereo not shown) [CBK155881] | 137.487
Cc1ccc(Cl)c(OC(C)C(=O)N2CCCC(C(N)=O)C2)c1 (stereo not shown) [CBK304936] | 106.756
O=C(NCCN1CCOCC1)c1cc(-c2cccc(Br)c2)nc2ccccc12 [CBK263625] | 122.732
CN1CCOc2cc(S(=O)(=O)Nc3nnn[nH]3)ccc21 [CBK062389] | 92.3926
CCS(=O)(=O)CCNC(=O)c1cnc(N2CCCCC2)nc1C [CBK307715] | 103.004
Cc1[nH]c2c(C)cccc2c1CC(=O)N(C)CCN(C)C [CBK282724] | 119.703
COc1ccc2c(c1)CCN=C2C[C@H]1CN(C(=O)C2CC2)CC[C@H]1CC(=O)O [CBK289154] | 112.976
c1ccc2oc(-c3cncc(NCCc4c[nH]c5ccccc45)n3)cc2c1 [CBK066068] | 149.631
C[C@@H]1c2c(C(=O)OC(C)(C)C)ncn2-c2ccc(F)cc2N1CC(=O)N1CCCC1 [CBK016704] | 146.779
O=C(Nc1cccc2ccccc12)/C(=C\c1ccco1)NC(=O)c1ccc(Br)cc1 [CBK264587] | 102.696
Cc1ccc(-c2nc(C3CCN(C(=O)NC(C)C)CC3)n3ccccc23)cc1 [CBK046861] | 119.693
CCN1CCC[C@@H]1CNC(=O)c1cc(Cl)nc(OC)c1 [CBK174692] | 126.619
CC(C)C(=O)N1C[C@H]2CCc3nnc(-c4ccccc4)n3[C@H]2C1 [CBK283438] | 144.913

Compound | % of control remaining [%]
O=C1c2ccccc2C(=O)N1c1ccc2nc(SCc3nc4ccccc4[nH]3)sc2c1 [CBK263368] | 79.6371
COc1cc(C(=O)c2ccc(Cl)cc2)cc(Br)c1OCCN1CCOCC1 [CBK010131C] | 94.7584
COc1cc(C)nc(NC(=O)COc2ccc(Cl)cc2C)n1 [CBK266681] | 111.183
N#Cc1ccc(C(=O)Nc2ccc(N3CCNCC3)nc2)cc1 [CBK029435T] | 120.794
CC(C)CC1CC(=O)Nc2c1c(=O)[nH]n2C(C)C (stereo not shown) [CBK287924] | 122.331
C#CCNS(=O)(=O)c1cccc(C(=O)NCC2CCCN(C(C)C)C2)c1 (stereo not shown) [CBK305981] | 102.135
Cn1ncnc1CNc1ccc(S(=O)(=O)N2CCCCCC2)cc1 [CBK305278] | 85.4007
CCOC(=O)N1CCC(NS(=O)(=O)c2c(C)noc2C)CC1 [CBK045465] | 130.255
CC(C)n1c(COc2ccc(OC(F)(F)F)cc2)n[nH]c1=S [CBK012989] | 96.6342
Cc1cc(C(=O)NCCc2ccc(S(N)(=O)=O)cc2)no1 [CBK268130] | 114.229
O=C(O)c1ccc(S(=O)(=O)NCc2ccc3c(c2)OCO3)cc1 [CBK262360] | 100
O=C(Cn1cccc(C(=O)NCc2ccccc2)c1=O)Nc1cc(F)ccc1N1CCCC1 [CBK286041] | 120.531
Cc1cccnc1Nc1nc(-c2sc(N)nc2C)cs1 [CBK267147] | 187.528
O=c1cnnc(Nc2cccc(Cl)c2Cl)[nH]1 [CBK287897] | 100.174
Cc1cc2c(o1)c1cnn(CC(=O)N3CCCC3)c(=O)c1n2C(C)C [CBK284232] | 107.578
CC(C)(C)C(=O)Nc1nnc(SCC(=O)N2CCc3ccccc32)s1 [CBK004889] | 141.651
NC(=O)c1c(NC(=S)NC(NC(=O)c2ccccc2)C(Cl)(Cl)Cl)sc2c1CCCC2 (stereo not shown) [CBK261048] | 68.4307
COc1cnc(-c2cnn(C)c2)c(NC(=O)Cc2ccccc2)n1 [CBK145327] | 125.971
CCOc1ccc(-c2nn(-c3ccccc3)cc2/C=C2\SC(=S)N(CC(=O)O)C2=O)cc1F [CBK265647] | 100
O=C(c1cnn2cccnc12)N1CCc2[nH]c3ccccc3c2C1 [CBK281874] | 97.0662
COc1cccc2sc(NC(=O)Cc3ccccc3)nc12 [CBK149284] | 104.053
c1ccc(Oc2ccc(Nc3cc(-c4ccc(N5CCOCC5)cc4)ncn3)cc2)cc1 [CBK090923] | 98.9341
Cn1c(-c2nonc2N)nc2ccccc21 [CBK062642] | 91.4595
O=S(=O)(Nc1nccnc1-c1ccc2c(c1)OCO2)c1ccc(Cl)cc1 [CBK050952] | 107.929
N=C1OC2CSCC2N1C(=O)Cc1c(F)cccc1Cl (stereo not shown) [CBK284517] | 134.148
Cc1ccc(C(C)C)c(OCC(=O)Nc2cc(-c3nc4ccccc4[nH]3)ccc2C)c1 [CBK268724] | 118.217
CSCCCNC(=O)c1cncc(-c2ccc(C(=O)N3CCOCC3)cc2)c1 [CBK158610] | 113.402

Compound | % of control remaining [%]
OCC1CCCN1c1nccnc1-c1cccc(O)c1 (stereo not shown) [CBK089052] | 92.9465
COc1cc(CNC(=O)C(C)SCc2ccccc2)ccn1 (stereo not shown) [CBK298331] | 115.714
CCOC(=O)NC(=O)Nc1cc2ccccc2c(Br)n1 [CBK063282] | 115.94
Cc1cc(Cl)c(S(=O)(=O)Nc2ccon2)cc1OCC(=O)NC1CCCCC1 [CBK266785] | 104.943
Oc1ccccc1Sc1cnccn1 [CBK085840] | 96.0109
Cc1ccc(S(N)(=O)=O)cc1NC(=O)c1ccco1 [CBK004204] | 122.089
CC[C@H]1CN(C(C)=O)CC[C@H]1CC(=O)NCc1ccc2c(c1)OCO2 [CBK289131] | 128.343
CCc1noc(C)c1C(=O)Nc1ncc(C)s1 [CBK288244] | 116.518
COC(=O)c1ncn(CC(=O)N2CCCCCC2)n1 [CBK305184] | 112.683
CC(=O)c1cccc(NC(=O)CCCn2cc([N+](=O)[O-])cn2)c1 [CBK268911] | 105.649
CCn1ncc(CN2CCCCCC2c2cc(C)no2)c1C (stereo not shown) [CBK283008] | 126.712
CCNC(=O)NC[C@H]1C[C@@H]2CCN1C[C@@H]2c1cc(C2CCCC2)nc(C)n1 [CBK289122] | 152.255
CN1C(=O)[C@@H](OC(=O)c2cccnc2)C[C@H]1c1ccc(F)cc1 [CBK283649] | 115.681
Cc1nc2n(n1)CCN(C(=O)Cc1c(C)[nH]c3ccc(F)cc13)C2 [CBK284355] | 127.911
Clc1ccc(COc2ccccc2OCc2ccccc2)s1 [CBK002766] | 96.106
CN1CCN(C(=O)c2ccsc2NS(=O)(=O)c2ccc(-c3ccccc3)cc2)CC1 [CBK042274] | 111.123
COc1cc(CNC(=O)N2CCC(C(=O)O)CC2)cc(OC)c1OC [CBK161401] | 133.285
O=C(Cn1nnc(-c2ccc3c(c2)OCO3)n1)Nc1ccccc1C(=O)O [CBK268025] | 90.5818
O=C(Nc1ncnc2c1[nH]c(=O)n2C1CC(O)C(CO)O1)c1ccccc1 (stereo not shown) [CBK201250] | 106.589
O=C(O)c1cc(NC(=O)c2ccc(Oc3ccc([N+](=O)[O-])cc3)cc2)cc(C(=O)O)c1 [CBK261188] | 115.331
O=C(C1CCCC1)N1CCC(c2nnc(-c3ccsc3)o2)CC1 [CBK283379] | 129.057
Cc1cc(N2CCN(c3ccccc3)CC2)nc(-c2ccccc2O)n1 [CBK116405] | 124.037
Cc1cc(CN(C)Cc2ccc(N3CCCC3)c(F)c2)n[nH]1 [CBK281953] | 84.9798
COc1ccccc1CN(CC1CCNCC1)C(=O)Nc1c(C)noc1C [CBK049739] | 64.6452
CN(C)CCN(Cc1cccnc1)C(=O)Cc1ccc2c(c1)CCC2 [CBK282770] | 82.3771

In a second layout: entries from further up
Compound	% of control remaining [%]
Cc1ccc(Cl)c(OC(C)C(=O)N2CCCC(C(N)=O)C2)c1 (stereo not shown) [CBK304936]	106.756
COc1cc(CNC(=O)C(C)SCc2ccccc2)ccn1 (stereo not shown) [CBK298331]	115.714
